Taken from: PubChem BioAssay AID686943 (Drosophila RNAi Screening Center, 2013)

- Test: 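Search across the genome for regulators of signalling from receptor tyrosine kinase to ERK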 (primary screen)
- Cell system: Drosophila S2R+ haemocyte-like cells expressing YFP-tagged ERK (Rolled)
- Knock-down reagent: long dsRNA against Drosophila genes
- Treatment: insulin stimulation versus unstimulated cells; dose and duration not given
- Detection: 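Per-plate z-scores of phospho-ERK immunostaining normalised to YFP-tagged ERK, measured with and without insulin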
- Scale: replicate 1, z-score of dpERK with insulin: higher = more active ERK per ERK-YFP after insulin
The screen tested about 23,000 reagents; this is a random part of those that have a named target and a result. 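Extra replicates exist only for a retested subset of genes; insulin dose and duration not given; both raised and lowered dpERK matter.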 The numbers tell different reagents against one gene apart. Names joined by + are all predicted targets of the reagent. Not all columns of the deposit are shown. Reagent sequences are not shown. The record does not give: the amount of reagent, the time to read-out.

replicate 1, z-score of dpERK with insulin, by target gene and reagent
140up: #1 -0.22
CG10550: #1 0.51
Swim: #1 0.49
Fkbp14: #1 0.29
Snx16: #1 1.49
Nf-YC: #1 -1.72
CG8461: #1 -0.33
CG17562: #1 -0.26
jim: #1 0.29
TotC: #1 0.61
Nthl1: #1 2.28
CG30001: #1 -0.17
mamo: #1 -5.81; #2 0.14; #3 0.52; #4 1.17; #5 1.17
CG30036: #1 0.2
Tengl3: #1 0.32
Decay: #1 -0.28
Nepl16: #1 0.06
Uba1: #1 0.09
caps: #1 0.02; #2 -0.77
Uvrag: #1 0.34
Or33c: #1 1.4
GILT1: #1 0.46
dpr3: #1 0.63; #2 -0.26; #3 -2.07
ntc: #1 0.26
RpL36A: #1 -1.01
polo: #1 -0.31; #2 0.66
CG10089: #1 -0.1; #2 -1.46
CG10068: #1 0.61
CG10543: #1 -2.27
Bub1: #1 -0.2
CG34300: #1 -0.58
CG43691: #1 0.78; #2 0.25
Cyp310a1: #1 0.18
Orct2: #1 -0.48
RabX1: #1 0.34

No new results follow: an excerpt of the list.
replicate 1, z-score of dpERK with insulin, by target gene and reagent
Fkbp14: #1 0.29
Snx16: #1 1.49
Nf-YC: #1 -1.72
CG8461: #1 -0.33
CG17562: #1 -0.26

The results go on.
replicate 1, z-score of dpERK with insulin, by target gene and reagent
eIF2Bgamma: #1 -0.28
Tsp42Eh: #1 -0.73
Iris: #1 -0.26
CG15445: #1 -0.19
CG7252: #1 0.13; #2 0.4
mRpS29: #1 0.21
CycH: #1 0.31; #2 -0.86
Nmd3: #1 0.42; #2 -0.1
CG3088: #1 -0.22
Cyt-c-p: #1 1.43
CG3626: #1 0.45
Idgf5: #1 0.33
CG14000 + bchs: #1 -0.06
Lnk: #1 -1.98
S2P: #1 0.06
Dhc98D: #1 -0.68
CG10761: #1 0.18
Sox15: #1 -0.18
Ugt301D1: #1 0.47
Uxs: #1 -0.27
CG15456: #1 -0.19
ND-B14.5AL: #1 -0.2
CG12071: #1 -0.73
CG13996: #1 -0.05
mst: #1 0.06
